Our source for the TEAD-luciferase reporter activity values is the supplement of paper PMC10735217.

Each structure is given as a SMILES string. Structures can show the parent of a compound that is named as a salt. This is one part of the list. This data set is noisy: repeats of one test often differ as much as different tests do.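 Human kidney-derived cells stably carry a construct in which eight TEAD-binding elements drive luciferase, measured by luminescence in a drug-repurposing library screen. A hit is any compound whose signal exceeds the plate mean by more than five robust Z scores.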

The assay deals with HEK293A TEAD-LUC reporter. The assay can be described thus: TEAD-luciferase reporter activity (YAP activation), robust Z score vs plate; higher = stronger YAP/TEAD activation. The following applies: 24 h.

Consider `CCN(CC)CCC1(c2ccccc2)CCC(=O)NC1=O` (centres undefined), for which the TEAD-luciferase reporter activity (compound concentration: 200 nM) is inactive: -1.37, the TEAD-luciferase reporter activity (compound concentration: 2 uM) was inactive: -0.0492 and the TEAD-luciferase reporter activity (compound concentration: 10 uM) is inactive: -0.17.
As to `COc1c(C)c2c(c(O)c1C/C=C(\C)CCC(=O)O)C(=O)OC2` [Mycophenolic Acid], the TEAD-luciferase reporter activity by setting is: (compound concentration: 200 nM) inactive: -0.317; (compound concentration: 10 uM) inactive: 0.785.
On to `COc1c(C)c2c(c(O)c1C/C=C(\C)CCC(=O)O)C(=O)OC2` [Mycophenolic Acid Sodium], for which the TEAD-luciferase reporter activity (compound concentration: 2 uM) was inactive: 0.65.
`Cc1oc(=O)oc1COC(=O)[C@@H]1N2C(=O)[C@@H](NC(=O)[C@H](N)c3ccccc3)[C@H]2SC1(C)C` [lenampicillin]: the TEAD-luciferase reporter activity (compound concentration: 200 nM) was inactive: -1.48, the TEAD-luciferase reporter activity (compound concentration: 2 uM) is inactive: -0.273 and the TEAD-luciferase reporter activity (compound concentration: 10 uM) was inactive: -1.63.
In the same order, the values of `Cc1oc(=O)oc1CN1CCN(c2cc3c(cc2F)c(=O)c(C(=O)O)c2n3C(C)S2)CC1` (centres undefined) [prulifloxacin] are inactive: -0.416, inactive: -0.589 and inactive: -1.
In the same order, the values of `COc1c(OC)c(OC)c2c(c1O)c(=O)c1ccc(O)c(OC)c1n2C` are inactive: -1.43, inactive: -0.436 and inactive: 1.62.
In the same order, the values of `CCOc1ccc(CC2NC(=O)CCSSCC(C(=O)N3CCCC3C(=O)NC(CC(C)C)C(=O)NCC(N)=O)NC(=O)C(CC(N)=O)NC(=O)C(CCC(N)=O)NC(=O)C(C(C)CC)NC2=O)cc1` (centres undefined) [deamino-ethyl-oxytocin] are inactive: 1.49, inactive: 0.521 and inactive: -0.00476.
For `CCCC(Oc1c(Cl)cccc1COc1ccc(OCc2ccc3ccccc3n2)cc1)C(=O)O` (centres undefined), the TEAD-luciferase reporter activity (compound concentration: 200 nM) is inactive: -1.48, the TEAD-luciferase reporter activity (compound concentration: 2 uM) was inactive: 0.502 and the TEAD-luciferase reporter activity (compound concentration: 10 uM) is inactive: 0.236.
As for `CN(C)CCC=C1c2ccccc2CCc2ccccc21` [amitriptyline, Elan], the TEAD-luciferase reporter activity (compound concentration: 2 uM) is inactive: -1.34.
As to `CN(C)CCC=C1c2ccccc2CCc2ccccc21` [Annoyltin], the TEAD-luciferase reporter activity is inactive: -1.28 (compound concentration: 200 nM) and inactive: 1.35 (compound concentration: 10 uM).
For the molecule `O=C1CCCc2c1ccn2CCCCN1CCN(c2cccc(C(F)(F)F)c2)CC1`, the TEAD-luciferase reporter activity was inactive: -0.731 (compound concentration: 200 nM), inactive: -1.66 (compound concentration: 2 uM) and inactive: 1.01 (compound concentration: 10 uM).
`O=C(NCC(c1ccccc1)n1ccnc1)c1ccc(-c2ccc(Cl)cc2)cc1` (centres undefined): the TEAD-luciferase reporter activity was inactive: -0.68 (compound concentration: 200 nM), inactive: -2.02 (compound concentration: 2 uM) and inactive: -3.03 (compound concentration: 10 uM).
In the same order, the values of `NC(=O)c1ccc[n+]([C@@H]2O[C@H](CO)[C@@H](O)[C@H]2O)c1` [Nicotinamide riboside_tab_] are inactive: -0.121, inactive: 0.117 and inactive: 0.135.
On to `O=C(CCCCCCC(=O)Nc1ccccc1)NO` [Vorinostat], for which the TEAD-luciferase reporter activity is inactive: -3.66 (compound concentration: 200 nM) and active: 36.4 (compound concentration: 10 uM).
On to `O=C(CCCCCCC(=O)Nc1ccccc1)NO` [vorinostat], for which, for the setting “compound concentration: 2 uM”, the TEAD-luciferase reporter activity is active: 24.6.
Consider `Cc1cc(-c2nc(-c3ccc(OC(F)(F)F)cc3)no2)nn1Cc1ccnc(N2CCN(C3CC3)CC2)c1`, for which the TEAD-luciferase reporter activity (compound concentration: 200 nM) is inactive: -1.45, the TEAD-luciferase reporter activity (compound concentration: 2 uM) is inactive: 0.129 and the TEAD-luciferase reporter activity (compound concentration: 10 uM) is inactive: 0.111.
In the same order, the values of `CCOCCn1nc(C(=O)NS(C)(=O)=O)c2nc(N(C)CC)nc(Nc3cc(C)ccn3)c21` are inactive: 2.18, inactive: -1.44 and inactive: -0.507.
In the same order, the values of `Cc1cc(C)c(NC(=O)N(Cc2ccc3c(c2)Cc2ccccc2-3)C2CCCCCC2)c(C)c1` are inactive: 0.595, inactive: 0.174 and inactive: 3.84.
As for `CCC(CO)Nc1nc(NCc2ccccc2)c2ncn(C(C)C)c2n1` (stereo in doubt) [(R)-Roscovitin], the TEAD-luciferase reporter activity was inactive: -1.58 (compound concentration: 200 nM) and inactive: 1.26 (compound concentration: 10 uM).
For the molecule `CCOC(=O)N1c2ccccc2Sc2ccccc21`, the TEAD-luciferase reporter activity was inactive: -1.41 (compound concentration: 200 nM), inactive: -0.24 (compound concentration: 2 uM) and inactive: 1.49 (compound concentration: 10 uM).
In the same order, the values of `Cc1ccccc1OCC(O)CNCCOc1ccc(C(N)=O)cc1` (centres undefined) [tolamolol] are inactive: -0.542, inactive: 1.85 and inactive: 2.45.
In the same order, the values of `CNC(=O)C1CCN(Cc2cc(F)cc(NC(=O)Nc3ccc(C)nc3)c2)CC1` are inactive: -1.51, inactive: 4.16 and inactive: -1.83.
In the same order, the values of `C/C(=C(/CCOC(=O)C(C)C)SS/C(CCOC(=O)C(C)C)=C(\C)N(C=O)Cc1cnc(C)nc1N)N(C=O)Cc1cnc(C)nc1N` [sulbutiamine] are inactive: -0.844, inactive: -0.881 and inactive: -2.09.
`CN(C)CCNC(=O)c1cccc2cc3ccccc3nc12`: the TEAD-luciferase reporter activity (compound concentration: 200 nM) is inactive: 1.35, the TEAD-luciferase reporter activity (compound concentration: 2 uM) is inactive: 3.46 and the TEAD-luciferase reporter activity (compound concentration: 10 uM) was inactive: 2.89.
As for `CCOC(=O)O[C@]1(C(=O)OCCl)CC[C@H]2[C@@H]3CCC4=CC(=O)C=C[C@]4(C)[C@H]3[C@@H](O)C[C@@]21C` [Loteprednol etabonate], the TEAD-luciferase reporter activity (compound concentration: 2 uM) was inactive: -0.59.
With `CCOC(=O)O[C@]1(C(=O)OCCl)CC[C@H]2[C@@H]3CCC4=CC(=O)C=C[C@]4(C)[C@H]3[C@@H](O)C[C@@]21C`, the TEAD-luciferase reporter activity is inactive: -0.893 (compound concentration: 200 nM) and inactive: 2.23 (compound concentration: 10 uM).
As for `CN1CCN(CCCN2c3ccccc3Sc3ccc(S(=O)(=O)N(C)C)cc32)CC1`, the TEAD-luciferase reporter activity is, setting by setting: (compound concentration: 200 nM) inactive: 0.218; (compound concentration: 2 uM) inactive: 1.1; (compound concentration: 10 uM) inactive: -0.67.
Consider `CN[C@@H]1[C@H](O)[C@H](NC)[C@H]2O[C@@]3(O)C(=O)C[C@@H](C)O[C@H]3O[C@@H]2[C@H]1O` [Spectinomycin hydrochloride], for which, where the note is “compound concentration: 2 uM”, the TEAD-luciferase reporter activity is inactive: -1.93.
Consider `CN[C@@H]1[C@H](O)[C@H](NC)[C@H]2O[C@@]3(O)C(=O)C[C@@H](C)O[C@H]3O[C@@H]2[C@H]1O`, for which the TEAD-luciferase reporter activity is, setting by setting: (compound concentration: 200 nM) inactive: -1.33; (compound concentration: 10 uM) inactive: 1.9.
As to `O=c1[nH]c2cc(-n3ccnc3)c([N+](=O)[O-])cc2[nH]c1=O`, the TEAD-luciferase reporter activity is inactive: -1.71 (compound concentration: 200 nM), inactive: -0.39 (compound concentration: 2 uM) and inactive: 0.656 (compound concentration: 10 uM).
